From patent publication US20090117598A1, “Method for identifying compounds that affect a transport of a protein through a membrane trafficking pathway” (priority 2004, published 2009)
At least one structure is not confirmed: it was looked up by name or label, or the drawing left a doubt.

Tested on: Hela cells
Experiment: fluid phase endocytosis assay (BODIPY-FL dextran internalization)
Format: cell-based
Procedure: For the fluid phase endocytosis assay, Hela cells in 96 well plates were washed and incubated for 120 min with the compounds in serum free buffered medium under tissue culture conditions. The medium was then replaced with serum-free buffered medium supplemented with 1 mg/ml BODIPY-FL-Dextran and 10 μM Syto60. Cells were incubated for 20 min at 37° C., then placed on a cooled block and washed extensively with ice cold phosphate buffered saline 10% w/v bovine serum albumin (Serva; Heidelberg, Germany). […]
Fluid phase endocytosis was measured using custom written scripts in Metamorph. Cells were identified in the 633 nm excitation SYTO60 image, the nuclei segmented and cells counted. […]
A fluid phase endocytosis assay measured the internalization of green fluorescent 40 kDa BODIPY-FI dextran. […] In this assay, endosomes labelled with fluorescent dextran by internalization were readily identified with the Opera instrument (FIG. 2b). […] Endocytosis was quantified by analysis of paired images of cells labelled with green dextran and the SYTO60 nuclear counter stain. […]
To identify compounds affecting GPCR internalization and not affecting housekeeping endocytosis, the kinase and phosphatase inhibitor collection was screened against the fluid phase endocytosis assay (FIG. 3b). The effect of the compounds was evaluated. […]

Cc1cc(O)c2c(=O)c3c(O)cc(O)c4c5c(O)cc(O)c6c(=O)c7c(O)cc(C)c8c1c2c(c34)c(c78)c65 [hypericin]
number of endosomes relative to the control (BODIPY-FL dextran 20 min at 37° C., FIG. 3b): increased | integrated fluorescence intensity per cell relative to the control (BODIPY-FL dextran, data not shown): significantly increased
